# According to the supplement of paper PMC10735217:
# Where a name gives a salt, the structure may show the parent alone. The list shows a part of the results. Single values are uncertain here, since repeats match poorly.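 The human kidney-derived cells carry a stably integrated construct of eight TEAD-binding elements driving luciferase, read by luminescence in a drug-repurposing library screen. A compound counts as a hit when its signal is more than five robust Z scores above the plate mean.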
# System: HEK293A TEAD-LUC reporter
# Assay: TEAD-luciferase reporter activity (YAP activation), robust Z score vs plate; higher = stronger YAP/TEAD activation
# Details: 24 h
SMILES,TEAD-luciferase reporter activity (compound concentration: 200 nM),TEAD-luciferase reporter activity (compound concentration: 2 uM),TEAD-luciferase reporter activity (compound concentration: 10 uM)
CC1=CCC(C(=O)N(c2cc(C#CC(C)(C)C)sc2C(=O)O)C2CCC(O)(COC3CCOC3)CC2)CC1 (configuration not stated) [Radalbuvir],inactive: -0.918,inactive: 0.167,inactive: 1.39
CC(CO)NC(=O)c1cccc(/C=C\CCCC(=O)N(C)C)c1 (configuration not stated),inactive: -0.265,inactive: 0.3,inactive: 2.15
CC(C)CC(NC(=O)[C@@H](Cc1ccc2ccccc2c1)NC(=O)C(Cc1ccc(O)cc1)NC(=O)C(CO)NC(=O)C(Cc1c[nH]c2ccccc12)NC(=O)C(CC1C=NC=N1)NC(=O)C1CCC(=O)N1)C(=O)NC(CCCNC(=N)N)C(=O)N1CCCC1C(=O)NCC(N)=O (some centres not stated) [nafarelin],inactive: -0.915,inactive: -1.47,inactive: 0.272
Oc1ccc(-c2c(-c3ccccc3)nn3c(C(F)(F)F)cc(C(F)(F)F)nc23)cc1,inactive: -0.395,inactive: 0.351,inactive: 1.89
CC(C)CCCC(C)NCCC(C)C (configuration not stated),inactive: -0.749,inactive: -1.31,inactive: 1.64
CC(C)(F)CC(NC(c1ccc(-c2ccc(C(O)C(F)F)cc2)cc1)C(F)(F)F)C(=O)NC1(C#N)CC1 (configuration not stated),inactive: -2.33,inactive: -0.602,inactive: 1.75
CC(C)(CO)[C@@H](O)C(=O)NCCC(=O)NCCSSCCNC(=O)CCNC(=O)[C@H](O)C(C)(C)CO [Pantethine],inactive: -0.884,inactive: -0.752,inactive: 1.12
Cc1nc(N)ccc1CNC(=O)Cn1c(C)ccc(NS(=O)(=O)Cc2ccccc2)c1=O,inactive: -0.819,inactive: -0.712,inactive: 0.13
CCCN(CCC)C(=O)C(CCC(=O)O)NC(=O)c1ccccc1 (configuration not stated) [proglumide],inactive: -1,inactive: -1.28,inactive: 1.12
CC1(C)O[C@@H]2C[C@H]3[C@@H]4CC[C@H]5CC(=O)CC[C@]5(C)[C@@]4(F)[C@@H](O)C[C@]3(C)[C@]2(C(=O)CO)O1,inactive: -0.667,inactive: 0.809,inactive: 2.43
c1ccc(N2CCN(Cc3nc4ccccc4[nH]3)CC2)nc1,active: 5.42,inactive: 0.314,inactive: -1.51
CC(C)C[C@H](NC(=O)[C@@H](COC(C)(C)C)NC(=O)[C@H](Cc1ccc(O)cc1)NC(=O)[C@H](CO)NC(=O)[C@H](Cc1c[nH]c2ccccc12)NC(=O)[C@H](Cc1cnc[nH]1)NC(=O)[C@@H]1CCC(=O)N1)C(=O)N[C@@H](CCCNC(=N)N)C(=O)N1CCC[C@H]1C(=O)NNC(N)=O [Goserelin],inactive: -0.649,inactive: -0.663,inactive: 0.0422
O=C(O[C@@H]1Cc2c(O)cc(O)cc2O[C@@H]1c1ccc(O)c(O)c1)c1cc(O)c(O)c(O)c1 [(-)-Epicatechin gallate],inactive: -1.71,inactive: -1.48,inactive: -1.96
N[C@@H](CCC(=O)N[C@@H](CSN=O)C(=O)NCC(=O)O)C(=O)O [S-Nitrosoglutathione],inactive: -1.47,inactive: -0.738,inactive: 3.39
Cc1cc(-c2ncc(CC(=O)Nc3ccc(-c4cnccn4)cn3)cc2C)ccn1,inactive: 2,inactive: -0.271,inactive: -2.87
O=C(O)Cc1csc(SCC(=O)NC[C@H]2CN(Cc3ccc(Cl)c(Cl)c3)CCO2)n1,inactive: -0.151,inactive: -1.51,inactive: 0.0299
CC(=O)O[C@H]1Cc2ccccc2N(C(N)=O)c2ccccc21 [Eslicarbazepine acetate],inactive: -1.11,inactive: -0.0436,inactive: 0.719
Nc1ccc(S(=O)(=O)Nc2ccc(S(N)(=O)=O)cc2)cc1,inactive: 0.321,inactive: -0.829,inactive: -0.268
O=C1C[C@@]2(C(=O)N1)C(=O)N(Cc1ccc(Br)cc1F)C(=O)c1cccn12 [ranirestat],inactive: -0.7,inactive: -1.54,inactive: 1.02
O=C1C[C@@]2(C(=O)N1)C(=O)N(Cc1ccc(Br)cc1F)C(=O)c1cccn12 [Ranirestat],–,inactive: 0.379,–
NC(=O)c1cccc2cn(-c3ccc([C@@H]4CCCNC4)cc3)nc12 [niraparib],inactive: 0.22,inactive: -2.21,inactive: -1.28
Cc1cc(C)cc(-c2ccc(CN3CCCC3C(=O)NCc3ccc4c(c3)OCO4)cc2)c1 (configuration not stated),active: 12.7,–,inactive: 3.4
COC(=O)[C@@H]1NC(=O)[C@H]2NC(=O)[C@H](NC(=O)[C@@H]3NC(=O)[C@H]4NC(=O)[C@H](NC(=O)[C@H](N)c5ccc(O)c(c5)Oc5cc4cc(O)c5C)[C@H](O)c4ccc(cc4)Oc4cc3cc(c4O[C@@H]3O[C@H](CO[C@@H]4O[C@@H](C)[C@H](O)[C@@H](O)[C@H]4O)[C@@H](O)[C@H](O)[C@H]3O[C@H]3O[C@H](CO)[C@@H](O)[C@H](O)[C@@H]3OC3O[C@H](CO)[C@@H](O)[C@@H]3O)Oc3ccc(cc3)[C@H]2O[C@@H]2C[C@@H](N)[C@@H](O)[C@H](C)O2)c2ccc(O)c(c2)-c2c(O[C@@H]3O[C@H](CO)[C@@H](O)[C@H](O)[C@@H]3O)cc(O)cc21 (some centres not stated) [methyl ester of ristocetin],inactive: -1.17,inactive: -1.57,inactive: 0.847

# Quoted at random: two records from the list.
SMILES,TEAD-luciferase reporter activity (compound concentration: 200 nM),TEAD-luciferase reporter activity (compound concentration: 2 uM),TEAD-luciferase reporter activity (compound concentration: 10 uM)
CC(C)(CO)[C@@H](O)C(=O)NCCC(=O)NCCSSCCNC(=O)CCNC(=O)[C@H](O)C(C)(C)CO [Pantethine],inactive: -0.884,inactive: -0.752,inactive: 1.12
O=C1C[C@@]2(C(=O)N1)C(=O)N(Cc1ccc(Br)cc1F)C(=O)c1cccn12 [ranirestat],inactive: -0.7,inactive: -1.54,inactive: 1.02

# (further entries)

SMILES,TEAD-luciferase reporter activity (compound concentration: 200 nM),TEAD-luciferase reporter activity (compound concentration: 2 uM),TEAD-luciferase reporter activity (compound concentration: 10 uM)
CNC(C)=O [N-methylacetamide],inactive: 2.87,inactive: -0.32,inactive: 0.303
CCC(=O)c1ccc2c(c1)N(CCCN1CCN(CCO)CC1)c1ccccc1S2,inactive: -0.725,inactive: 0.459,inactive: -1.09
COc1ccc(-c2ccc3ncnc(Nc4ccc(-n5cncn5)cc4)c3c2)cc1OC,inactive: -0.184,inactive: -0.768,inactive: -1.07
CCCCCCCCCC(=O)OCCN1CCN(CC/C=C2\c3ccccc3Sc3ccc(Cl)cc32)CC1 [Zuclopenthixol decanoate],inactive: -0.183,inactive: -2.09,inactive: -0.574
CCC(C)C(=O)OC1CC(O)C=C2C=CC(C)C(CCC(O)CC(O)CC(=O)O)C21 (configuration not stated) [pravastatin],inactive: -1.1,inactive: -1.48,inactive: 3.93
O=C(O)c1cc(O)c2c(c1)C(=O)c1cccc(O)c1C2=O [Rheinic acid],inactive: -0.554,inactive: -0.913,inactive: 0.277
Cc1c(CN(C)C(=O)/C=C/c2cnc3c(c2)CCC(=O)N3)oc2ccccc12,inactive: 2.56,–,inactive: -0.892
Cc1c(CN(C)C(=O)/C=C/c2cnc3c(c2)CCC(=O)N3)oc2ccccc12 [Debio-1452],–,inactive: -1.29,–
CC(C)C[C@@H](C(=O)N[C@@H](Cc1ccc(OCc2ccccc2)cc1)C(=O)NC(C)(C)C)N(C)Cc1ccc(C(C)(C)C)cc1,inactive: -0.582,inactive: -0.0298,inactive: 3.06
O=C(CCCCC1CCCCC1)N1CCC(c2cnc[nH]2)CC1,inactive: 2.91,inactive: 0.362,inactive: 0.845
CCOC(=O)c1cn(C2CC2)c2c(OC)c(N3CCC(=O)CC3)c(F)cc2c1=O,inactive: -0.516,inactive: 0.292,inactive: -0.123
CCCCN(CCCC)CC(O)c1cc(Cl)cc2c1-c1ccc(Cl)cc1C2=Cc1ccc(Cl)cc1 (configuration not stated) [Lumefantrine],inactive: -2.16,inactive: -0.628,inactive: 1.49
CCc1ccc(C(=O)C(C)CN2CCCCC2)cc1 (configuration not stated) [Eperisone hydrochloride],inactive: -0.435,inactive: 1.32,inactive: 0.0948
N[C@@H](C(=O)N[C@@H]1C(=O)N2C(C(=O)O)=C(Cl)CC[C@H]12)c1ccccc1 [loracarbef],inactive: -0.514,inactive: -1.66,inactive: 2.8
O=C(CN1C(=O)c2ccccc2S1(=O)=O)Nc1ccc(O)cc1,inactive: -0.661,inactive: -0.817,inactive: 2.33
C[C@H](CO)Nc1nc(SCc2cccc(F)c2F)nc2[nH]c(=O)sc12,inactive: -0.527,inactive: -0.797,inactive: -1.27
CCc1nc2c(CC)cn(Cc3ccc(-c4ccccc4-c4nnn[nH]4)cc3)n2n1,inactive: -0.752,inactive: -0.729,inactive: -0.0922
CN1C(N)=NS(=O)(=O)N=C1NCCSCc1csc(N=C(N)N)n1 [tuvatidine],inactive: 0.99,inactive: -0.23,inactive: 3.16
CC(=C/C=C/C=C(C)\C=C\C=C(\C)C(=O)O)/C=C/C=C(/C)C(=O)O [transcrocetinate sodium],inactive: -0.774,inactive: -0.26,inactive: -0.298
CC[C@H](C)n1cc(C)c2c(C(=O)NCc3c(C)cc(C)[nH]c3=O)cc(-c3ccc(N4CCNCC4)nc3)cc21,inactive: -1.16,inactive: -0.945,inactive: -0.685
O=C1CC(c2cccc(Br)c2)C(=O)N1 (configuration not stated) [brosuximide],inactive: -1.05,inactive: 0.879,inactive: 0.193
O=C([O-])c1ccc2c(c1)nc(C(=O)NC1CCN(C3CC3)CC1)n2Cc1cc(-c2ccc(Cl)s2)on1,inactive: -0.916,inactive: 1.56,inactive: 1.95
CN(c1ccc(/C=C/C[C@H](NC(=O)Cc2ccccc2)C(=O)O)cc1)c1ncccn1,inactive: -0.569,inactive: 0.507,inactive: -0.00792
